Measurements reported in PubChem BioAssay AID1259331 (Drosophila RNAi Screening Center, 2017)

Screen: 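Fly transmembrane-protein genes that affect zinc toxicity in cultured cells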 (primary screen)
Cell system: Drosophila S2R+ cells
Reagents: long dsRNA against Drosophila genes
Timing: 5 days (4 days knock-down, then 1 day zinc)
Challenge: zinc chloride at 15 mM final level for 1 day
Read-out: 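Total cellular ATP measured by luciferase luminescence as a viability proxy, turned into Z scores from three plate copies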
Reading the numbers: mean Z score: higher = more ATP than other wells, better survival under zinc; ATP luminescence: higher = more ATP, more viable cells
Hit rule: 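a reagent is called a hit when its Z score is above 1.5 or below -1.5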
Meaning of the calls: active = hit, ATP up or down; inactive = not a hit
In all, the deposit lists about 3,100 reagents; this is a random part of them. 126 of all reagents (4.1%) count as active. 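Calls are per reagent; zinc was so toxic that few knock-downs lowered ATP further, so most hits raise ATP.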 The raw values are shown without normalisation. A plus sign joins genes that one reagent is predicted to hit. No sequences are given here. The record does not give: the amount of reagent.

target gene	dsRNA	mean Z score	ATP luminescence, replicate 1	ATP luminescence, replicate 2	activity call
aph-1 (anterior pharynx defective 1)	DRSC00547	0.0758	54047	60735	inactive
aph-1 (anterior pharynx defective 1)	DRSC39729	0.269	64919	63547	inactive
CG17928	DRSC02644	-0.18	49280	36113	inactive
CG17928	DRSC39554	-0.129	64199	55865	inactive
Eglp3 (Entomoglyceroporin 3)	DRSC04293	-0.272	50601	39422	inactive
Eglp3 (Entomoglyceroporin 3)	DRSC25630	-0.204	58179	58334	inactive
Npl4 (Nuclear protein localization 4)	DRSC15615	4.5	92569	1.09e5	active
Npl4 (Nuclear protein localization 4)	DRSC15616	0.717	44445	69635	inactive
CG17821	DRSC06696	0.754	68953	91420	inactive
CG17821	DRSC39871	0.0938	65056	61834	inactive
CG9760	DRSC11101	2.13	1.15e5	90305	active
CG9760	DRSC28846	-0.489	51424	56345	inactive
CG13014	DRSC19533	-0.207	40357	43005	inactive
CG13014	DRSC38999	-0.11	46194	46193	inactive
CG1824	DRSC19796	0.819	78554	80716	inactive
CG1824	DRSC39705	-0.313	57357	57768	inactive
TkR86C (Tachykinin-like receptor at 86C)	DRSC16880	-0.243	38548	54253	inactive
GAA1 (Glycosylphosphatidylinositol anchor attachment 1)	DRSC18267	-0.746	36902	37210	inactive
GAA1 (Glycosylphosphatidylinositol anchor attachment 1)	DRSC39778	-0.142	53381	55110	inactive
CG9270	DRSC03182	-0.32	28742	27045	inactive
Gr2a (Gustatory receptor 2a)	DRSC18603	-0.625	54253	57151	inactive
Gr2a (Gustatory receptor 2a)	DRSC39727	-0.391	50172	56412	inactive
Or33a (Odorant receptor 33a)	DRSC03386	-0.04	49796	40842	inactive
if (inflated)	DRSC20341	-0.266	39902	42028	inactive
if (inflated)	DRSC39458	0.673	62301	59209	inactive
JTBR	DRSC08667	0.368	74215	82757	inactive
Spase12 + CG2006	DRSC14316	1.47	86994	93873	inactive
CG5404	DRSC28832	0.245	66667	63652	inactive
CG5404	DRSC39809	-0.493	45920	52813	inactive
slv (saliva)	DRSC07685	-0.382	63787	66493	inactive
CG3702	DRSC00628	2.14	83506	89415	active
CG3702	DRSC39885	-0.119	56808	60358	inactive
SppL (Signal peptide peptidase-like)	DRSC15228	0.00892	30833	56499	inactive

Taken from above.
CG1824 [DRSC39705], ATP luminescence, replicate 2 = 57768
if (inflated) [DRSC39458], ATP luminescence, replicate 2 = 59209
For “activity call”, CG17928 [DRSC39554] shows inactive
Value of CG1824 [DRSC19796] under “ATP luminescence, replicate 1”: 78554
Value for Npl4 (Nuclear protein localization 4) [DRSC15616] under “mean Z score”: 0.717
CG5404 [DRSC28832], ATP luminescence, replicate 2 = 63652

The results go on:
target gene	dsRNA	mean Z score	ATP luminescence, replicate 1	ATP luminescence, replicate 2	activity call
CG1213	DRSC12191	0.289	72517	69584	inactive
CG1806	DRSC19787	-0.189	43297	44514	inactive
Rift (Riboflavin transporter)	DRSC14330	0.582	70842	80664	inactive
CG8219	DRSC10971	-0.0182	79314	59432	inactive
CG8219	DRSC24577	0.366	63204	58711	inactive
Tyler + Shawn	DRSC19564	0.337	54219	45933	inactive
Tyler + Shawn	DRSC19565	-0.000406	40108	38599	inactive
CG32645	DRSC19683	0.505	78074	70682	inactive
CG32645	DRSC19889	0.319	68384	74358	inactive
Ret (Ret oncogene)	DRSC03409	-0.299	25296	29707	inactive
Ret (Ret oncogene)	DRSC03410	0.815	60238	51338	inactive
Ret (Ret oncogene)	DRSC37019	0.966	61369	53533	inactive
CG33282	DRSC00422	-0.444	40896	41051	inactive
CG33282	DRSC39731	-0.114	68349	53190	inactive
CLS (Cardiolipin synthase)	DRSC15642	0.842	48749	73477	inactive
CLS (Cardiolipin synthase)	DRSC28289	1.76	81951	95074	active
Ctl2 (Choline transporter-like 2)	DRSC29712	2.11	70956	1.17e5	active
pyx (pyrexia)	DRSC08511	1.49	57538	61249	inactive
pyx (pyrexia)	DRSC28167	-0.448	56276	39919	inactive
Or88a (Odorant receptor 88a)	DRSC16770	-0.198	38548	54699	inactive
Or88a (Odorant receptor 88a)	DRSC39423	-0.225	48999	45097	inactive
sax (saxophone)	DRSC07675	-0.193	32045	29822	inactive
sax (saxophone)	DRSC26844	-0.825	43811	55927	inactive
sax (saxophone)	DRSC37004	0.214	48286	51943	inactive
CG16825	DRSC02526	0.12	54767	36651	inactive
CG16825	DRSC39689	0.206	62535	61884	inactive
Myd88	DRSC06815	-0.685	25159	24491	inactive
Myd88	DRSC39905	-0.696	45320	55693	inactive
Nup107 (Nucleoporin 107kD)	DRSC01999	0.554	62059	71711	inactive
tor (torso)	DRSC07707	0.088	70716	76102	inactive
tor (torso)	DRSC36623	0.0159	45971	51561	inactive
tor (torso)	DRSC36624	-0.198	47137	44132	inactive
Tsp39D (Tetraspanin 39D)	DRSC03099	-0.991	40828	33456	inactive
MFS12 (Major Facilitator Superfamily Transporter 12)	DRSC07268	0.169	26539	34553	inactive
clumsy	DRSC03111	-0.128	48046	44411	inactive
